This test concerns the target T1, Asp1, untagged, as co-expressed with Asp3 and tagged Asp2 (Streptococcus gordonii) (UniProt Q9AET8).
T1 sequence: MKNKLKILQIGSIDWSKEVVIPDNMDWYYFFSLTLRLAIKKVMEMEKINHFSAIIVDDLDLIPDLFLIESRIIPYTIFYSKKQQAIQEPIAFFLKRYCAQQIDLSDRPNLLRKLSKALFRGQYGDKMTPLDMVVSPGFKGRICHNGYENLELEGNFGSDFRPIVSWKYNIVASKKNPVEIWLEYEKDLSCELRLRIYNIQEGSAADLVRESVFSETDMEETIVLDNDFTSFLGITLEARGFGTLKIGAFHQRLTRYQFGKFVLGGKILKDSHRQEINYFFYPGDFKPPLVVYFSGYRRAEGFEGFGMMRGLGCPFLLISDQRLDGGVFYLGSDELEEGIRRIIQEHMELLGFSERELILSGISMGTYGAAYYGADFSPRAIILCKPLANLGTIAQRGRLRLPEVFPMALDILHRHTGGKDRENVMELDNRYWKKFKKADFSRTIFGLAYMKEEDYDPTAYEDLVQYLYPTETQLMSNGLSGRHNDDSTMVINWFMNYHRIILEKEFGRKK
In words: SEC. For orientation: In gel filtration, larger molecules generally elute earlier.

Results are given in words; binding and its absence hold for the method and conditions named. Binding can be weak; no strength is given. Tags and fused reporters may be left off the sequences shown.

In the case of “Asp3 (accessory Sec protein 3) (Streptococcus gordonii)”, the binding entry was “binds”.

The record behind these values is publication doi:10.1101/219105.
